# Measured values reported in doi:10.1101/2021.05.19.443414.
# Chains of the proteins cited; added tags and fusions are not shown.
# UniProt P16892: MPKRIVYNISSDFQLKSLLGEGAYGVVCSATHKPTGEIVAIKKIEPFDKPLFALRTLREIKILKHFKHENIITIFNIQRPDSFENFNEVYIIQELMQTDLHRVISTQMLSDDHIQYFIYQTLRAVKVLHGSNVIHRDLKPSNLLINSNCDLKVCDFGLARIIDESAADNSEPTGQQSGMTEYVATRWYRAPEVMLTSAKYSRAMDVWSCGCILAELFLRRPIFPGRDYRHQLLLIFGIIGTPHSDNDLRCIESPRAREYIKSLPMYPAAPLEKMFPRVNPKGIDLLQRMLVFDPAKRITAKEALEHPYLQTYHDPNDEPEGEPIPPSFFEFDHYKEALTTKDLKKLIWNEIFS
# No constants are given. Whether binding was seen depends on the method and setting. Binding seen in cells or lysates may run through a third protein. These calls come from enrichment with a bait or labelling near it, and not all partners need be listed. Tags and fused reporters may be left off the sequences shown.
# T1: Myc-tagged Kel1 (S. cerevisiae) (UniProt P38853)
# T1 sequence: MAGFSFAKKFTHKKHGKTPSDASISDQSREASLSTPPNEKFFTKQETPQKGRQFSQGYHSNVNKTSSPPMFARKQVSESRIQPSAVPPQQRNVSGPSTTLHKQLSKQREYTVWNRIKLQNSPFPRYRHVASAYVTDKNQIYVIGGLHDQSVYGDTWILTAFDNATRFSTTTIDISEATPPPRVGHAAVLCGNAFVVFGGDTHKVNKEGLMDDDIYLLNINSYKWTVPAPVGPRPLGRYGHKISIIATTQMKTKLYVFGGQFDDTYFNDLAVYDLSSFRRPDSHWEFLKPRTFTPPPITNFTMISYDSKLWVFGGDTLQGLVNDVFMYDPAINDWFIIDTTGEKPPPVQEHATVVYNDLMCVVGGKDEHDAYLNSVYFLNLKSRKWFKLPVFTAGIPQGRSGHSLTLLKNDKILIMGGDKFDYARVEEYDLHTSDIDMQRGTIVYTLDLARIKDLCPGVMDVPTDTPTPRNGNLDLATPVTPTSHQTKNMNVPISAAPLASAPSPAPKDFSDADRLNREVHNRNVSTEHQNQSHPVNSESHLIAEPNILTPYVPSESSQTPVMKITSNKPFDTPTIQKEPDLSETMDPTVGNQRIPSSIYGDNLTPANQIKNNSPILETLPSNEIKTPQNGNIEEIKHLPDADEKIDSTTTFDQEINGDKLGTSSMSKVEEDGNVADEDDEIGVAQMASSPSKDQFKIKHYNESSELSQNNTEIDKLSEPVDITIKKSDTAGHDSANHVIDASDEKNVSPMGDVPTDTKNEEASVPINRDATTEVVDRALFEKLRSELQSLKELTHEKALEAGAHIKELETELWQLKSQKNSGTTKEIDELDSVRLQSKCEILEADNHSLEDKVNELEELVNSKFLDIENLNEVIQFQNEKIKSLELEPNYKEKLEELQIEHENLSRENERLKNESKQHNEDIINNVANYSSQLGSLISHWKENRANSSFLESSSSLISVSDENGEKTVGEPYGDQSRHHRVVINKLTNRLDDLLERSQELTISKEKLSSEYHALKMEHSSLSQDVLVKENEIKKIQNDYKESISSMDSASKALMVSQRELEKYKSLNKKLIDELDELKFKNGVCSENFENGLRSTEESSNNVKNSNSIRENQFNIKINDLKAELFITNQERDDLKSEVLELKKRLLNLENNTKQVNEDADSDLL
# Biological target: T1, Myc-tagged Kel1 (S. cerevisiae)
# Assay: affinity purification with mass spectrometry
row,Molecule,binding
1,MAPK Fus3 (from UniProt P16892 1-353) (enzyme),binds
2,"Far1 (protein, UniProt P21268 1-830) MKTPTRVSFEKKIHTPPSGDRDAERSPPKKFLRGLSGKVFRKTPEFKKQQMPTFGYIEESQFTPNLGLMMSKRGNIPKPLNLSKPISPPPSLKKTAGSVASGFSKTGQLSALQSPVNITSSNKYNIKATNLTTSLLRESISDSTTMCDTLSDINLTVMDEDYRIDGDSYYEEDSPTFMISLERNIKKCNSQFSPKRYIGEKCLICEESISSTFTGEKVVESTCSHTSHYNCYLMLFETLYFQGKFPECKICGEVSKPKDKDIVPEMVSKLLTGAGAHDDGPSSNMQQQWIDLKTARSFTGEFPQFTPQEQLIRTADISCDGFRTPRLSNSNQFEAVSYLDSPFLNSPFVNKMATTDPFDLSDDEKLDCDDEIDESAAEVWFSKTGGEHVMVSVKFQEMRTSDDLGVLQDVNHVDHEELEEREKEWKKKIDQYIETNVDKDSEFGSLILFDKLMYSDDGEQWVDNNLVILFSKFLVLFDFEEMKILGKIPRDQFYQVIKFNEDVLLCSLKSTNIPEIYLRFNENCEKWLLPKWKYCLENSSLETLPLSEIVSTVKELSHVNIIGALGAPPDVISAQSHDSRLPWKRLHSDTPLKLIVCLNLSHADGELYRKRVLKSVHQILDGLNTDDLLGIVVVGRDGSGVVGPFGTFIGMINKNWDGWTTFLDNLEVVNPNVFRDEKQQYKVTLQTCERLASTSAYVDTDDHIATGYAKQILVLNGSDVVDIEHDQKLKKAFDQLSYHWRYEISQRRMTPLNASIKQFLEELHTKRYLDVTLRLPQATFEQVYLGDMAAGEQKTRLIMDEHPHSSLIEIEYFDLVKQQRIHQTLEVPNL",binds
3,"Sst2 (protein, UniProt P11972 1-698) MVDKNRTLHELSSKNFSRTPNGLIFTNDLKTVYSIFLICLDLKEKKHSSDTKSFLLTAFTKHFHFTFTYQEAIKAMGQLELKVDMNTTCINVSYNIKPSLARHLLTLFMSSKLLHTPQDRTRGEPKEKVLFQPTPKGVAVLQKYVRDIGLKTMPDILLSSFNSMKLFTFERSSVTDSIIHSDYLIHILFIKMMGAKPNVWSPTNADDPLPCLSSLLEYTNNDDTFTFEKSKPEQGWQAQIGNIDINDLERVSPLAHRFFTNPDSESHTQYYVSNAGIRLFENKTFGTSKKIVIKYTFTTKAIWQWIMDCTDIMHVKEAVSLAALFLKTGLIVPVLLQPSRTDKKKFQISRSSFFTLSKRGWDLVSWTGCKSNNIRAPNGSTIDLDFTLRGHMTVRDEKKTLDDSEGFSQDMLISSSNLNKLDYVLTDPGMRYLFRRHLEKELCVENLDVFIEIKRFLKKMTILKKLIDSKHCDKKSNTSTSKNNIVKTIDSALMKQANECLEMAYHIYSSYIMIGSPYQLNIHHNLRQNISDIMLHPHSPLSEHFPTNLYDPSPASAESAASSISSTEADTLGEPPEVSLKPSKNLSNENCSFKKQGFKHQLKEYKPAPLTLAETHSPNASVENSHTIVRYGMDNTQNDTKSVESFPATLKVLRKLYPLFEIVSNEMYRLMNNDSFQKFTQSDVYKDASALIEIQEKC",binds
4,"Fig1 (protein, UniProt P38224 1-298) MVAISMIWFFTKRMPRIFALAFNLISIFLLIFLLIGCYNPSNQSTFLVKYKFDDNSPFYTIIEKSYEKSNTTLGLEEVIIRSGYMGVCIDNIPSQYSSYNNMTTFSNSICYARKNLSSVPLYRDLEIQLSNIASSSSKTQSSVVLNILKLAQLTSVNVIHPYVLMATVILTILMFLFILYVTVPKLPFKLAVNKFLLLLSSTIVLTWGIGAMWTHVGINASYRLVPSSSMNIITVKKGKKAAVMAWFSFAFLLLDSVVLWLIFLRDRKSLKDEIDNVPCAQNRYNNYSSDSSTLHSKV",binds
5,"pheromone receptor Ste2 (receptor, UniProt D6VTK4 1-431) MSDAAPSLSNLFYDPTYNPGQSTINYTSIYGNGSTITFDELQGLVNSTVTQAIMFGVRCGAAALTLIVMWMTSRSRKTPIFIINQVSLFLIILHSALYFKYLLSNYSSVTYALTGFPQFISRGDVHVYGATNIIQVLLVASIETSLVFQIKVIFTGDNFKRIGLMLTSISFTLGIATVTMYFVSAVKGMIVTYNDVSATQDKYFNASTILLASSINFMSFVLVVKLILAIRSRRFLGLKQFDSFHILLIMSCQSLLVPSIIFILAYSLKPNQGTDVLTTVATLLAVLSLPLSSMWATAANNASKTNTITSDFTTSTDRFYPGTLSSFQTDSINNDAKSSLRSRLYDLYPRRKETTSDKHSERTFVSETADDIEKNQFYQLPTPTSSKNTRIGPFADASYKEGEVEPVDMYTPDTAADEEARKFWTEDNNNL",binds
6,"Ste5 (protein, UniProt P32917 1-917) MMETPTDNIVSPFHNFGSSTQYSGTLSRTPNQIIELEKPSTLSPLSRGKKWTEKLARFQRSSAKKKRFSPSPISSSTFSFSPKSRVTSSNSSGNEDGNLMNTPSTVSTDYLPQHPHRTSSLPRPNSNLFHASNSNLSRANEPPRAENLSDNIPPKVAPFGYPIQRTSIKKSFLNASCTLCDEPISNRRKGEKIIELACGHLSHQECLIISFGTTSKADVRALFPFCTKCKKDTNKAVQCIPENDELKDILISDFLIHKIPDSELSITPQSRFPPYSPLLPPFGLSYTPVERQTIYSQAPSLNPNLILAAPPKERNQIPQKKSNYTFLHSPLGHRRIPSGANSILADTSVALSANDSISAVSNSVRAKDDETKTTLPLLRSYFIQILLNNFQEELQDWRIDGDYGLLRLVDKLMISKDGQRYIQCWCFLFEDAFVIAEVDNDVDVLEIRLKNLEVFTPIANLRMTTLEASVLKCTLNKQHCADLSDLYIVQNINSDESTTVQKWISGILNQDFVFNEDNITSTLPILPIIKNFSKDVGNGRHETSTFLGLINPNKVVEVGNVHDNDTVIIRRGFTLNSGECSRQSTVDSIQSVLTTISSILSLKREKPDNLAIILQIDFTKLKEEDSLIVVYNSLKALTIKFARLQFCFVDRNNYVLDYGSVLHKIDSLDSISNLKSKSSSTQFSPIWLKNTLYPENIHEHLGIVAVSNSNMEAKKSILFQDYRCFTSFGRRRPNELKIKVGYLNVDYSDKIDELVEASSWTFVLETLCYSFGLSFDEHDDDDEEDNDDSTDNELDNSSGSLSDAESTTTIHIDSPFDNENATANMVNDRNLLTEGEHSNIENLETVASSVQPALIPNIRFSLHSEEEGTNENENENDMPVLLLSDMDKGIDGITRRSSFSSLIESGNNNCPLHMDYI",binds
